For at least one compound, name, drawing or mass did not settle the structure. Some entries share one result that the patent states for a list of compounds.
How the values were obtained:
Format in all cases: cell-based
[1] = tested on: GPC3-positive HepG2 cells; test: Internalization assay in HepG2 cells; conditions: HepG2 cells at 2 h
[2] = tested on: GPC3-positive HepG2 cells; test: Cellular efflux in HepG2 cells; conditions: for cell-associated radioactivity at end of efflux study: end of 1 h study time; for radioactivity efflux during 1 h study time: percentage of added dose; for cell-associated radioactivity at start of efflux study: start of 1 h study time
[3] = tested on: GPC3-positive HepG2 cells; test: Cellular uptake in HepG2 cells; conditions: for cell uptake (peak value): 60 min incubation, normalized by added radioactivity
[4] = tested on: GPC3-negative McA-RH7777 cells; test: Cellular uptake in McA-RH7777 cells; conditions: 60 min incubation
[5] = tested on: GPC3-negative McA-RH7777 cells; test: Cellular efflux in McA-RH7777 cells

Compound: CC(C)C[C@H](NC(=O)[C@H](CCCNC(=N)N)NC(=S)Nc1ccc(CC2CN(CC(=O)O)CCN(CC(=O)O)CCN2CC(=O)O)cc1)C(=O)N[C@@H](CC(N)=O)C(=O)N[C@H](C(=O)NCC(=O)NCC(=O)N[C@H](C(=O)N[C@@H](Cc1ccc(O)cc1)C(=O)N[C@@H](Cc1ccccc1)C(=O)N[C@@H](CC(C)C)C(=O)N[C@H](C(=O)N[C@H](C(=O)N[C@@H](CCCNC(=N)N)C(=O)N[C@@H](CCC(N)=O)C(=O)O)[C@@H](C)O)[C@@H](C)O)[C@@H](C)O)C(C)C (single isomer, unassigned) [Al[^18F]F-GP2076]
- internalization [1]: < 10 % of cell uptake
- cell-associated radioactivity at end of efflux study [2]: 0.21%
- radioactivity efflux during 1 h study time [2]: about 0.83%
- cell-associated radioactivity at start of efflux study [2]: 1.04%
- incubation time after which binding reaches a plateau [3]: 30 min
- cell uptake (peak value) [3]: 1.08±0.04%

Compound: CC(C)C[C@H](NC(=O)[C@H](CCCNC(=N)N)NC(=O)[C@H](CC(N)=O)NC(=O)[C@H](CC(=O)O)NC(=O)[C@H](CCCNC(=N)N)NC(=O)CNC(=O)CNC(=O)CNC(=S)Nc1ccc(CC2CN(CC(=O)O)CCN(CC(=O)O)CCN2CC(=O)O)cc1)C(=O)N[C@@H](CC(N)=O)C(=O)N[C@H](C(=O)NCC(=O)NCC(=O)N[C@H](C(=O)N[C@@H](Cc1ccc(O)cc1)C(=O)N[C@@H](Cc1ccccc1)C(=O)N[C@@H](CC(C)C)C(=O)N[C@H](C(=O)N[C@H](C(=O)N[C@@H](CCCNC(=N)N)C(=O)N[C@@H](CCC(N)=O)C(=O)O)[C@@H](C)O)[C@@H](C)O)[C@@H](C)O)C(C)C (single isomer, unassigned) [Al[^18F]F-GP2633]
- internalization [1]: < 10 % of cell uptake
- cell-associated radioactivity at end of efflux study [2]: 0.27%
- radioactivity efflux during 1 h study time [2]: ~0.86%
- cell-associated radioactivity at start of efflux study [2]: 1.13%
- cellular uptake [4]: 0.30±0.03%
- time for radioactivity to be washed out to the baseline [5]: ≤ 5 min
- incubation time after which binding reaches a plateau [3]: 30 min
- cell uptake (peak value) [3]: 1.15±0.05%
